PubChem BioAssay AID1259254 | NCATS – 2017
The whole screen tested about 59,000 reagents; below is an unselected part. About 1,550 of them (2.6%) were called active. 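G2 share is only a proxy for re-replication; each gene was hit by three separate siRNAs, and active genes were retested.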 Entries without a mark were called inactive. The numbers tell different reagents against one gene apart. Not all columns of the deposit are shown. No sequences are given here. Not given: the amount of reagent.

Aim: 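Gene knock-downs that lead to re-replication, shown by excess G2 DNA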 (primary screen)
Cell system: human HCT116 colorectal cancer cells
Reagent: single siRNA against human genes
Duration: 3 days
Measured: 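Nuclei stained with Hoechst and imaged; cell-cycle phase assigned by DNA content; G2 share scaled per plate, non-targeting siRNA 0%, GMNN siRNA 100%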
Direction: G2 robust z-score: higher = more G2 cells, more excess DNA replication
Hit rule: 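Active siRNAs have a G2 robust z of 5 or more median absolute deviations over the median, which in these data means about 38% or higher of GMNN control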

STAU2 (staufen double-stranded RNA binding protein 2) #1 | G2 robust z-score = 2.91
STAU2 (staufen double-stranded RNA binding protein 2) #2 | G2 robust z-score = 0.747
STAU2 (staufen double-stranded RNA binding protein 2) #3 | G2 robust z-score = 5.43 (active)
ARMS2 (age-related maculopathy susceptibility 2) #1 | G2 robust z-score = -0.97
ARMS2 (age-related maculopathy susceptibility 2) #2 | G2 robust z-score = 1.51
ARMS2 (age-related maculopathy susceptibility 2) #3 | G2 robust z-score = 1.1
FCRL5 (Fc receptor like 5) #1 | G2 robust z-score = 1
FCRL5 (Fc receptor like 5) #2 | G2 robust z-score = -0.161
FCRL5 (Fc receptor like 5) #3 | G2 robust z-score = 4.93
UBR7 (ubiquitin protein ligase E3 component n-recognin 7) #1 | G2 robust z-score = 3.76
UBR7 (ubiquitin protein ligase E3 component n-recognin 7) #2 | G2 robust z-score = 1.71
UBR7 (ubiquitin protein ligase E3 component n-recognin 7) #3 | G2 robust z-score = 0.202
CSKMT (citrate synthase lysine methyltransferase) #1 | G2 robust z-score = -0.631
CSKMT (citrate synthase lysine methyltransferase) #2 | G2 robust z-score = -0.497
CSKMT (citrate synthase lysine methyltransferase) #3 | G2 robust z-score = -0.352
DYSF (dysferlin) #1 | G2 robust z-score = -0.819
DYSF (dysferlin) #2 | G2 robust z-score = 12.3 (active)
DYSF (dysferlin) #3 | G2 robust z-score = -0.316

2 entries from above in another layout:
gene,reagent no.,G2 robust z-score
FCRL5 (Fc receptor like 5),1,1
FCRL5 (Fc receptor like 5),2,-0.161
